Results on one molecule are retold here after article PMC11263569.

For the assay, the target named is MYH9 motor domain, His-tagged. Description: co-IP; HEK-293T cells co-transfected; lysates immunoprecipitated with anti-His antibody (MYH9), immunoblot with anti-Flag (RGS19) or anti-Myc (STUB1) antibody. (A western blot detects proteins with antibodies after separation by electrophoresis.)

Results are given in words; binding and its absence hold for the method and conditions named. In cells and extracts the contact can be indirect. A result given as binding can be weak or reduced; the word gives no strength. Where a sequence is shown, tags or fusion partners need not be part of it.

B1: FLAG-RGS19 (regulator of G-protein signaling 19) (protein, UniProt P49795 1-217)
chain: MPTPHEAEKQITGPEEADRPPSMSSHDTASPAAPSRNPCCLCWCCCCSCSWNQERRRAWQASRESKLQPLPSCEVCATPSPEEVQSWAQSFDKLMHSPAGRSVFRAFLRTEYSEENMLFWLACEELKAEANQHVVDEKARLIYEDYVSILSPKEVSLDSRVREGINKKMQEPSAHTFDDAQLQIYTLMHRDSYPRFLSSPTYRALLLQGPSQSSSEA
Turning to B1, the binding result is “binds”.
